Assay results published in PubChem BioAssay AID540275 (National Center for Advancing Translational Sciences (NCATS), 2011).
Several values for one entry are separate records, joined by “and”; a condition that tells them apart may be missing. Equal entries are not always repeated. In all, about 320,000 compounds went through this assay and about 620 (0.19%) were called active. The shares of active, inactive and inconclusive entries below differ from those in the screen. No stated cut-off is given here; in the data, active means activation above about 80%; inconclusive means between about 30% and that limit; inactive means weaker than that.

Amino acid sequences for entries named in this document (tags omitted).
UniProt Q8NER1, whole entry, looked up: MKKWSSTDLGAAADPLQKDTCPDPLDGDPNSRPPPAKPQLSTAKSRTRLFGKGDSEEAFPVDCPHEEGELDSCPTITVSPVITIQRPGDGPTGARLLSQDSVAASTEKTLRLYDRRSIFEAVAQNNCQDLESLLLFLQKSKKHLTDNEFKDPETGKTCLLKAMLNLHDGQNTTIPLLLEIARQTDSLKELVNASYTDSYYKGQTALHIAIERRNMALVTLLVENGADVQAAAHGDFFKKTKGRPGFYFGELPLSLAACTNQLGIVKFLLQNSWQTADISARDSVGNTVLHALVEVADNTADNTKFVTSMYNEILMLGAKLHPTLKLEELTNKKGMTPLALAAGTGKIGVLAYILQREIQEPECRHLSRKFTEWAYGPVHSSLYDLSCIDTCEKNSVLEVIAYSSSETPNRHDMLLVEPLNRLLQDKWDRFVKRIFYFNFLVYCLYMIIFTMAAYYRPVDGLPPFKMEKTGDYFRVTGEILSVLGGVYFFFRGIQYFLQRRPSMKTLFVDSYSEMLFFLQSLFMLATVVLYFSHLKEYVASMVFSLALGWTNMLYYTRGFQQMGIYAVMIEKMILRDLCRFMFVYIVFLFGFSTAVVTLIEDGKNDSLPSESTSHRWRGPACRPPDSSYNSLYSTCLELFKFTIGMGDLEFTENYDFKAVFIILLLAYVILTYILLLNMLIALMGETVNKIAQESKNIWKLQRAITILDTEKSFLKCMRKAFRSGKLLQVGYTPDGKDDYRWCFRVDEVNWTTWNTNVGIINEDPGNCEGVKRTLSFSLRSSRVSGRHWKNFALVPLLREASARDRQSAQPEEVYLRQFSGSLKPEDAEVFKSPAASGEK

Biological target: Transient receptor potential cation channel subfamily V member 1 (Homo sapiens) (UniProt Q8NER1)
Assay: HTS Assay for Compounds that Act as Agonists of the Vanilloid Receptor 1; further: 0% is about no effect
Details: TRPV1-expressing cells, Fluo-8 calcium influx, agonist mode; at 8.33 µM; hits give high values
In short: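 TRPV1-expressing cells were cultured overnight at 35.5C and loaded with Fluo-8 calcium dye for 40 to 90 min at room temperature. After a 10 s baseline, compound was added and calcium influx was read kinetically for 3 min (ex 480/em 520 nm).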

Structure (SMILES) | activation
COCCNC(=O)CN1C(=O)C(C)N=C(c2ccccc2)c2cc(Cl)ccc21 (centres undefined) | inconclusive: 34.1%
C=C1C[C@@H]2[C@H](CC[C@]3(C)C(=O)CC[C@@H]23)[C@@]2(C)C=CC(=O)C=C12 | inconclusive: 37.4%
COc1ccc(C2CC(c3c(O)n(CCc4ccccc4)c(=O)[nH]c3=O)=NN2)cc1OC (centres undefined) | inactive: 1.24%
Cc1cc2c(C(F)(F)F)cc(=O)oc2c2c1NCCC2 | inconclusive: 75.5%
CCOC(=O)C1(CCc2ccccc2)CCN(Cc2cccc3c2OCO3)CC1 | inactive: 13.5%
COc1cccc(C2=NOC(C(=O)N3CCC4(CC3)OCCO4)C2)c1 (centres undefined) | inactive: -1.96%
O=c1[nH]c(O)c(N=Nc2ccc3c(c2)OCCO3)c(=O)[nH]1 | inactive: 0.146%
CC/C(=N\NC(=O)c1ccccc1)c1c(O)n(Cc2ccccc2)c(=O)[nH]c1=O | inconclusive: 43.7%
CCOc1ccc(-n2c(-c3ccoc3)nc3ccccc3c2=O)cc1 | inactive: 1.88%
COc1ccc(-c2nc3ccccc3c(=O)n2-c2cccnc2)cc1 | inconclusive: 60.7%
Cc1nn(Cc2ccccc2)c(Cl)c1C(=O)NC1CCCc2ccccc21 (centres undefined) | inconclusive: 54.1%
CN1C(=O)C(=Cc2ccc(N3CCCCCC3)cc2)C(=O)N(C)C1=O | inactive: 5.71%
CN(C)C(=O)O/N=C(\N)COc1ccc(C(C)(C)C)cc1 | inconclusive: 47.9%
Cc1cc(OCc2nn[nH]n2)c2c3c(c(=O)oc2c1)CCCC3 | inactive: 0.0617%
COC(=O)C1=C(c2ccc(Cl)c(C(F)(F)F)c2)C[C@@H]2CC[C@H]1N2C(=O)N1CCCC1 | inconclusive: 65.5%
Fc1ccc(CNCCc2ccc3c(c2)OCO3)cc1 | inactive: -0.367%
O=C(O)CC1OCC=C2CN3CCC45c6ccccc6NC4C1C2CC35 (centres undefined) | inactive: -1.18%
C[C@H]1O[C@@H](OC2CC[C@]3(C=O)[C@H]4CC[C@]5(C)[C@@H](C6=CC(=O)OC6)CC[C@]5(O)[C@@H]4CC[C@]3(O)C2)CC2OC(C)(C)OC21 (some centres undefined) | inactive: -0.296%
Cc1ccc(Cn2cc(C=O)c(-c3ccc(C)cc3)n2)cc1 | inconclusive: 39.2%
CCN(CC)c1ccc(N=Cc2c(O)n(CCc3ccc(OC)c(OC)c3)c(=O)[nH]c2=O)cc1 | inactive: 2.4%
COc1ccc(CCn2c(O)c(C=NCc3cccnc3)c(=O)[nH]c2=O)cc1OC | inactive: -6.97%
CNC(=O)Oc1cccc(-c2cn3cc(OC(=O)NC)ccc3n2)c1 | inactive: 2.97%
CC(=O)OCC[N+](C)(C)C | inconclusive: 33.5% and inconclusive: 38.9%
CCN(CC)c1ccc(N=Cc2c(O)n(Cc3ccco3)c(=O)[nH]c2=O)cc1 | inconclusive: 47.8%
Cc1cccc(OCCn2cccc2/C=C2/C(=O)NC(=O)N(Cc3ccco3)C2=O)c1 | inactive: 13.5%
Cc1c(C(c2ccc(Cl)cc2Cl)c2c(O)c3ccccc3oc2=O)c(=O)n(-c2ccccc2)n1C (centres undefined) | inactive: -3.93%
N#Cc1ccccc1Cn1cc(C(=O)c2cccs2)c2ccccc21 | inconclusive: 41.3%

12 entries out of the list, arranged by molecular weight, high to low.
Structure (SMILES) | activation
COC(=O)C1=C(c2ccc(Cl)c(C(F)(F)F)c2)C[C@@H]2CC[C@H]1N2C(=O)N1CCCC1 | inconclusive: 65.5%
COCCNC(=O)CN1C(=O)C(C)N=C(c2ccccc2)c2cc(Cl)ccc21 (centres undefined) | inconclusive: 34.1%
Cc1nn(Cc2ccccc2)c(Cl)c1C(=O)NC1CCCc2ccccc21 (centres undefined) | inconclusive: 54.1%
O=C(O)CC1OCC=C2CN3CCC45c6ccccc6NC4C1C2CC35 (centres undefined) | inactive: -1.18%
COc1cccc(C2=NOC(C(=O)N3CCC4(CC3)OCCO4)C2)c1 (centres undefined) | inactive: -1.96%
N#Cc1ccccc1Cn1cc(C(=O)c2cccs2)c2ccccc21 | inconclusive: 41.3%
CN1C(=O)C(=Cc2ccc(N3CCCCCC3)cc2)C(=O)N(C)C1=O | inactive: 5.71%
CCOc1ccc(-n2c(-c3ccoc3)nc3ccccc3c2=O)cc1 | inactive: 1.88%
Cc1cc(OCc2nn[nH]n2)c2c3c(c(=O)oc2c1)CCCC3 | inactive: 0.0617%
CN(C)C(=O)O/N=C(\N)COc1ccc(C(C)(C)C)cc1 | inconclusive: 47.9%
O=c1[nH]c(O)c(N=Nc2ccc3c(c2)OCCO3)c(=O)[nH]1 | inactive: 0.146%
Fc1ccc(CNCCc2ccc3c(c2)OCO3)cc1 | inactive: -0.367%

Next part

Structure (SMILES) | activation
Cc1cccc(OCC(=O)N2CCN(Cc3ccc4c(c3)OCO4)CC2)c1 | inconclusive: 49.2%
COCCCNC(=O)c1c(NC(=O)c2ccccc2Cl)n(Cc2ccccc2)c2nc3ccccc3nc12 | inconclusive: 30.6%
COC(=O)C1=C(c2ccccc2OCc2ccccc2)C[C@@H]2CC[C@H]1N2C(=O)NCc1ccccc1 | inactive: 27.3%
COC(=O)C1=C(c2ccc(-c3ccccc3)c(F)c2)C[C@@H]2CC[C@H]1N2C(=O)N1CCCCC1 | inconclusive: 33.2%
CCOC(=O)C1CCCN(c2ccc([N+](=O)[O-])c3nonc23)C1 (centres undefined) | active: 105%
CN1C(=O)C(=Cc2ccccc2OCCOc2ccc([N+](=O)[O-])cc2)C(=O)N(C)C1=O | inactive: 6.65%
COC(=O)C1=C(c2cccc(OCc3ccccc3)c2)C[C@@H]2CC[C@H]1N2C(=O)NCc1ccc(OC)c(OC)c1 | inconclusive: 52.2%
C=CCn1c(O)c(C(CC)=NCCC2=CCCCC2)c(=O)[nH]c1=O | inconclusive: 30.5%
O=C(CN1CCCCC1)NCC(=O)Nc1ccc(Br)cc1C(=O)c1ccccc1 | inactive: 0.985%
Cc1c(OC(=O)N(C)C)ccc2c1O/C(=C\c1ccco1)C2=O | inconclusive: 38.8%
CC(=O)c1ccc(-c2ccccc2)cc1 | inactive: 15.5%
O=C1NC(=O)N(Cc2ccccc2)C(=O)/C1=C\c1ccco1 | inconclusive: 50.8%
COc1ccc(CCNCc2ccc(Br)cc2)cc1OC | inactive: 0.442%
CCCCn1c(O)c(C(C)=NCCc2ccccc2)c(=O)[nH]c1=O | inconclusive: 37.7%
COC(=O)C1=C(c2ccc(F)cc2OCc2ccccc2)C[C@@H]2CC[C@H]1N2C(=O)NC1CC1 | inconclusive: 35.8%
COc1ccc2[nH]c(C)c(CCNCc3cc(OC)c4c(c3)OCO4)c2c1 | inactive: 2.4%
Cc1ccc2c(c1)CC1(CN2C)C(=O)NC(=O)N(C(C)C)C1=O (centres undefined) | inactive: 0.671%
CCOC(=O)C1=C(N)Oc2cc(C)oc(=O)c2C12C(=O)N1c3c(cc(OC)cc32)C(C)=CC1(C)C (centres undefined) | inconclusive: 48.7%
CC(=O)N1CC(=O)Nc2ccc(F)cc2C1c1ccccc1 (centres undefined) | inactive: -3.46%
CCCCCCCCC(=O)NCc1ccc(O)c(OC)c1 | active: 105%
O=c1cc(C(F)(F)F)c2cc3c4c(c2o1)CCCN4CCC3 | inconclusive: 74.2%
O=C(c1ccc(N2CCCCCC2)c([N+](=O)[O-])c1)N1CCC2(CC1)OCCO2 | inconclusive: 53.6%
NCCc1c[nH]c2ccc(C(N)=O)cc12 | inactive: 1.66%
CCCCc1nc(N2CCNCC2)c(C#N)c2c1CSC(C)(C)C2 | inconclusive: 54.6%
CN1C(=O)C(=Cc2ccc(N3CCOCC3)o2)C(=O)N(C)C1=O | inactive: -3.69%
CON(C)C(=O)Nc1ccc(Cl)cc1 | inconclusive: 32.9%
C#C[C@]1(O)CCC2C3CCC4=C/C(=N/OCC(=O)NC(C)C(=O)NC(CCSC)C(=O)O)CC[C@]4(C)C3CC[C@@]21C (some centres undefined) | inactive: -1.23%
